Reference: patent US8716012B2, “Alpha thymosin peptides as vaccine enhancers” (priority 2009, dated 2014)
Entries after “also recorded” stand apart in the source; their conditions may differ. Part of at least one peptide drawing is inferred or uncertain, most often the ends.

Key:
[1] = test system: 3 vaccine strains present in the Fluvirin® 2008-2009 vaccine (Florida [B], Brisbane 10 and Brisbane); set-up: species or system CD-1 mice; conditions: mouse, in vivo
hepatitis B = conditions: hemodialysis patients previously non-responsive to hepatitis B vaccination; 5 injections of TA1; cited from earlier work
influenza = conditions: elderly patients; TA1 injections twice weekly, total of eight injections; cited from earlier work
H1N1 N Brisbane 59 = assay: HAI antibody titer in ferrets vaccinated with influenza vaccine; type: in vivo; conditions: for animals with desired anti-influenza antibodies / protective titers: 0.57 mg/kg TA1 s.c. seven days prior to and on the day of vaccination (equivalent to a human dose of approximately 6.4 mg/kg)
[2] = human equivalent of 6.4 mg, day -7 and day of vaccination, without adjuvant

With “Ac-SDAAVDTSSEITTKDLKEKKEVVEEAEN-OH [TA1]” the “HAI titer vs Fluvirin alone” value [1] was “generally greater; also recorded: enhances the formation of anti-influenza antibodies”, the “animals achieving desired anti-influenza antibodies” value [1] was “all animals achieved desired anti-influenza antibodies in all tester strains; also recorded: all protected against three strains of influenza” and the “HAI titers compared to the other doses” value ([1]; ip, 1.2 mg/kg) was “increased the titers more consistently”. The “antibody response to hepatitis B vaccination” value (hepatitis B) was “can enhance antibody response”, the “antibody production in response to influenza vaccination” value (influenza) was “enhances antibody production” and the “animals with desired anti-influenza antibodies / protective titers” value (H1N1 N Brisbane 59) was “¾”. The “animals with desired anti-influenza antibodies / protective titers” value (H1N1 N Brisbane 59; listed as Thymalfasin) was 3 of 4, the “persistence of the titer” value (H1N1 N Brisbane 59; 0.57 mg/kg TA1 day -7 and day of vaccination, evaluated 42 days after vaccination) was “persisted” and the “HAI titer after vaccine booster vs boosted without TA1” value (H1N1 N Brisbane 59; TA1 on day 0 and +21) was “higher HAI titer”. For the same substance, the “antibody titer protective (1:40)” value (H1N1 N Brisbane 59; [2]) was “protective”, the “increase in antibody titer over vaccine alone” value (H1N1 N Brisbane 59; [2]) was 4 fold and the “HAI titer (Day 21) versus vaccine alone” value (H1N1 N Brisbane 59; two injections of TA1 plus non-adjuvanted vaccine) was “generally greater”.
